According to patent publication US9403866B2, “Compositions and methods for increasing telomerase activity” (Telomerase Activation Sciences, Inc., priority 2009, dated 2016):
At least one compound was matched to its structure with a doubt left.

Chains of the proteins cited; added tags and fusions are not shown. Lines headed by an entry give the natural chain unless they say otherwise; changes in a name come on top.
UniProt O14746: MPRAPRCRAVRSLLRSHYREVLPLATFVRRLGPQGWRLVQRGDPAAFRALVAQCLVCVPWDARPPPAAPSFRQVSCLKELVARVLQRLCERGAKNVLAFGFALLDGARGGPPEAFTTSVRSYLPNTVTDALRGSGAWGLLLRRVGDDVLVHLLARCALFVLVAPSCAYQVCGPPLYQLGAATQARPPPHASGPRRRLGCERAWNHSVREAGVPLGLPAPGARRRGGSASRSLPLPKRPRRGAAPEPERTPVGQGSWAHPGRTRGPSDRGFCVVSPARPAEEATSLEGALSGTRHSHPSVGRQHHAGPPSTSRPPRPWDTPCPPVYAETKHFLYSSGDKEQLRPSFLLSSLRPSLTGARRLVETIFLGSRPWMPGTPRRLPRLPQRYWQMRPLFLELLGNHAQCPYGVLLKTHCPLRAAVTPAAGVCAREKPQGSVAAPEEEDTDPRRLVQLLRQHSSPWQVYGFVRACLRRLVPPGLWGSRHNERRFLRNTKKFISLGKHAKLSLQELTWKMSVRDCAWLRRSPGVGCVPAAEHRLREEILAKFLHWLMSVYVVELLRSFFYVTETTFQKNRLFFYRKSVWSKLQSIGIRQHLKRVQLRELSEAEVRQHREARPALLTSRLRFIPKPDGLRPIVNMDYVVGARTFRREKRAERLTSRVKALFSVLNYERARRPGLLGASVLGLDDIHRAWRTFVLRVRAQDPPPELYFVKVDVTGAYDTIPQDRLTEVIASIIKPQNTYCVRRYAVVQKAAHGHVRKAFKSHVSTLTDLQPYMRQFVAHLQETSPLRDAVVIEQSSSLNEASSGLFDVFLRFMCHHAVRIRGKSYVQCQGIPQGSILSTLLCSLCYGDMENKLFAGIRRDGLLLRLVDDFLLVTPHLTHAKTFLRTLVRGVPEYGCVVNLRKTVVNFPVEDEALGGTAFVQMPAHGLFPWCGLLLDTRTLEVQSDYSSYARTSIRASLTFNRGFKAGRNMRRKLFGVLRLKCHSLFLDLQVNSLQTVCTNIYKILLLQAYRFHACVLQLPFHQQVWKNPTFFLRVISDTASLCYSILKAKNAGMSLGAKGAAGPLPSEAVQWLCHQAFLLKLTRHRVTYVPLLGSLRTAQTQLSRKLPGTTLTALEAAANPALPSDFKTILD

Columns and labels:
[1] = tested on: p16 and p21; assay: Senescence markers p16 and p21 in SAECs and fibroblasts; assay type: cell-based, human
[2] = biological target: T1, telomerase (Homo sapiens, UniProt O14746); assay: TRAP analysis of human brain pericytes; assay type: cell-based; parameters: host or cells: HEKneo-P (pooled neonatal human epidermal keratinocytes); settings: 30 hr
[3] = biological target: T1, telomerase; assay: Peripheral blood monocyte cell (PBMC)/TRAP assay; assay type: cell-based; parameters: host or cells: HEKneo-P (pooled neonatal human epidermal keratinocytes); Activity in PBMC: key to the marks not given beside the values; settings: 24 hours
Excerpt: Cell lines suitable for use in the assay, normal human peripheral blood mononuclear cells (PBMCs) or Human Epidermal Keratinocytes (neonatal) (HEKs), can be obtained from commercial sources, such as Cascade Biologics, Portland, Oreg. or 4C Biotech, Seneffe, Belgium, or from the ATCC (American Type Culture Collection). ATCC normal human fibroblast cell lines, which can be located on the ATCC web site, include for example, CCL135, CCL137, and CCL151.
PBMC Isolation. Blood was collected in sodium heparin vacutainers and pooled into a single 50 mL polypropylene tube. Blood was diluted 1:1 with 1×PBS and mixed thoroughly by inversion. 25 mL of diluted blood was layered over 12 mL of Lympholyte-H (Cedarlane Laboratories) and centrifuged at room temperature for 20 min at 800 g. […]
Culture Conditions. The cells were counted using Trypan Blue exclusion and resuspended in complete media that is supplemented with 50 Units of hIL-2/mL so that final concentration of cells is 1×10^6/mL. […] At least once a week, cells are counted and media level is adjusted to keep cells around 5—10^5/mL. […]
Treatment with Analogs. After 10-14 days in culture, cells were counted and resuspended in conditioned media at a concentration of 1×10^6/mL. […]
TRAP Reaction and Gel. Samples were analyzed using a 1-step TRAP PCR reaction. […]

Compound: CC(C)C(N)C(=O)OC1CCC23CC24CCC2(C)C(C5(C)CCC(C(C)(C)O)O5)C(O)CC2(C)C4CC(O)C3C1(C)C (stereo not drawn) [Compound 4, 2-(L)-Amino-3-methyl-butyric acid 6α,16β-dihydroxy-17-[5-(1-hydroxy-1-methyl-ethyl)-2-methyl-tetrahydro-furan-2-yl]-4,4,13,14-tetramethyl-tetradecahydro-cyclopropa[9,10]cyclopenta[a]phenanthren-3β-yl ester]
- senescence markers p16 and p21 ([1]; SAECs, treated 3 days): significantly reduced
- reduction of senescence markers p16 and p21 ([1]; fibroblasts): very small
- increase in telomerase activity ([2]; 0.1 μM in 0.1% DMSO): 1.8 fold
- increase in telomerase activity ([2]; 0.5 μM in 0.1% DMSO): 1.9 fold
- Fold increase at 1 μM ([3]; 1 μM): 1.4-19.4 fold
- Activity in PBMC [3]: ++
